Some of the results follow. The data scatter; read single values as rough.
compound: ClCC(=O)N[C@@H]1CCCc2ccccc12; experiment: log2 mean competition ratio of IA-DTB cysteine labelling (DMSO/compound) (log2 ratio); higher = stronger cysteine engagement by compound; conditions: 50 µM; treatment time: 4 h; cell line lysate: HEK293T
Protocol: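 IA-DTB competitive cysteine chemoproteomics in HEK293T RIPA lysate. Lysates were treated with compound 29 or 30 at 50 or 200 µM for 4 h, then IA-DTB (500 µM, 1 h), trypsin-digested, NeutrAvidin-enriched and analysed by diaPASEF. Competition ratio = intensity DMSO / intensity compound (n=4 treated, n=64 DMSO); binding: mean log2 CR ≥ 1 and p ≤ 0.05 plus QC filters. Target is the cysteine site.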

Chains of the proteins cited; added tags and fusions are not shown. Where a name states a change or a piece, a line headed by the entry shows the natural chain unless it says otherwise. A line that says so, or that is headed by a name, gives the form on record, which may keep a tag or linker. Residues count along the entry.
UniProt Q9UBB6: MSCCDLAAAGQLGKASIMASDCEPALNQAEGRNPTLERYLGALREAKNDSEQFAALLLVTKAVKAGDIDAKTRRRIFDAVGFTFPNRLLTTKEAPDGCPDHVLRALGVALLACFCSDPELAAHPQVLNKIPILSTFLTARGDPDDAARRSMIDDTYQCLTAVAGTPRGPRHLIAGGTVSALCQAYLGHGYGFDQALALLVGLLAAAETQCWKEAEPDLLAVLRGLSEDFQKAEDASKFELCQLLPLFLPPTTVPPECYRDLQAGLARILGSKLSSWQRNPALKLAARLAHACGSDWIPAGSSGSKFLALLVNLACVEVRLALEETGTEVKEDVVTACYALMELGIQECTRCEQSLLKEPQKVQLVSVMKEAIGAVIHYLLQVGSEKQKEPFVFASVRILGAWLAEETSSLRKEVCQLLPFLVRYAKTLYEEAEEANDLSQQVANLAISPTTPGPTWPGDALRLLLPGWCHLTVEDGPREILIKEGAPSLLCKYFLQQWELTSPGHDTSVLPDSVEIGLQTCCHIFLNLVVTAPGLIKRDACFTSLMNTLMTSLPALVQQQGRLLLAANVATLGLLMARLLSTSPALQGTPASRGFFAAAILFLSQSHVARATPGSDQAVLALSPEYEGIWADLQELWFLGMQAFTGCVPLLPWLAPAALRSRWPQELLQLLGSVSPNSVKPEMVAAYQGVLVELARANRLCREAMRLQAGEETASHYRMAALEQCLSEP
UniProt Q8TDX7, 249-268: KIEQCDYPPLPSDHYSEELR
UniProt Q00653: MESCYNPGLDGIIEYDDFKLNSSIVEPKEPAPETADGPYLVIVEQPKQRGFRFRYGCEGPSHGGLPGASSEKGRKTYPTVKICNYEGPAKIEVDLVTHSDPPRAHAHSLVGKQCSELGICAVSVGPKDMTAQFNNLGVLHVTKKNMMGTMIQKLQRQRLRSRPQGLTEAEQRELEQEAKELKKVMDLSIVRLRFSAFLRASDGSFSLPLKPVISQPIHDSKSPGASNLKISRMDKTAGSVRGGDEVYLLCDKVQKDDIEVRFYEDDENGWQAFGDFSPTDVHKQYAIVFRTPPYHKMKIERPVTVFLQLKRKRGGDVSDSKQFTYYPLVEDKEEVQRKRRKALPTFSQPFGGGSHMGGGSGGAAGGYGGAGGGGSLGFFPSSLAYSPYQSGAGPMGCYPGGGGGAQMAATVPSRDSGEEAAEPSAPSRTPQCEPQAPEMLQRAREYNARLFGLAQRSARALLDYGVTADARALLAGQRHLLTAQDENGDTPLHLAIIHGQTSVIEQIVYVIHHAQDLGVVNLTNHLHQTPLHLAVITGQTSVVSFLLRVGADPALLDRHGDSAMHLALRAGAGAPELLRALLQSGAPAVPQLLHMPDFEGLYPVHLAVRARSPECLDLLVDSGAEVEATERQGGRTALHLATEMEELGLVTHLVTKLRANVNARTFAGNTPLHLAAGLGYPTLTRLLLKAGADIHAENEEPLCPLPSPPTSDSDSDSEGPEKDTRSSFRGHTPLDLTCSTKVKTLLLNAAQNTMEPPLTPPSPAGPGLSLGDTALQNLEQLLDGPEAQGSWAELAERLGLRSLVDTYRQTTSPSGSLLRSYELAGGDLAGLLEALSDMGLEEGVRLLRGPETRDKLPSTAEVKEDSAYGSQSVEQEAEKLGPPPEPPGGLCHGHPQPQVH
UniProt P30414: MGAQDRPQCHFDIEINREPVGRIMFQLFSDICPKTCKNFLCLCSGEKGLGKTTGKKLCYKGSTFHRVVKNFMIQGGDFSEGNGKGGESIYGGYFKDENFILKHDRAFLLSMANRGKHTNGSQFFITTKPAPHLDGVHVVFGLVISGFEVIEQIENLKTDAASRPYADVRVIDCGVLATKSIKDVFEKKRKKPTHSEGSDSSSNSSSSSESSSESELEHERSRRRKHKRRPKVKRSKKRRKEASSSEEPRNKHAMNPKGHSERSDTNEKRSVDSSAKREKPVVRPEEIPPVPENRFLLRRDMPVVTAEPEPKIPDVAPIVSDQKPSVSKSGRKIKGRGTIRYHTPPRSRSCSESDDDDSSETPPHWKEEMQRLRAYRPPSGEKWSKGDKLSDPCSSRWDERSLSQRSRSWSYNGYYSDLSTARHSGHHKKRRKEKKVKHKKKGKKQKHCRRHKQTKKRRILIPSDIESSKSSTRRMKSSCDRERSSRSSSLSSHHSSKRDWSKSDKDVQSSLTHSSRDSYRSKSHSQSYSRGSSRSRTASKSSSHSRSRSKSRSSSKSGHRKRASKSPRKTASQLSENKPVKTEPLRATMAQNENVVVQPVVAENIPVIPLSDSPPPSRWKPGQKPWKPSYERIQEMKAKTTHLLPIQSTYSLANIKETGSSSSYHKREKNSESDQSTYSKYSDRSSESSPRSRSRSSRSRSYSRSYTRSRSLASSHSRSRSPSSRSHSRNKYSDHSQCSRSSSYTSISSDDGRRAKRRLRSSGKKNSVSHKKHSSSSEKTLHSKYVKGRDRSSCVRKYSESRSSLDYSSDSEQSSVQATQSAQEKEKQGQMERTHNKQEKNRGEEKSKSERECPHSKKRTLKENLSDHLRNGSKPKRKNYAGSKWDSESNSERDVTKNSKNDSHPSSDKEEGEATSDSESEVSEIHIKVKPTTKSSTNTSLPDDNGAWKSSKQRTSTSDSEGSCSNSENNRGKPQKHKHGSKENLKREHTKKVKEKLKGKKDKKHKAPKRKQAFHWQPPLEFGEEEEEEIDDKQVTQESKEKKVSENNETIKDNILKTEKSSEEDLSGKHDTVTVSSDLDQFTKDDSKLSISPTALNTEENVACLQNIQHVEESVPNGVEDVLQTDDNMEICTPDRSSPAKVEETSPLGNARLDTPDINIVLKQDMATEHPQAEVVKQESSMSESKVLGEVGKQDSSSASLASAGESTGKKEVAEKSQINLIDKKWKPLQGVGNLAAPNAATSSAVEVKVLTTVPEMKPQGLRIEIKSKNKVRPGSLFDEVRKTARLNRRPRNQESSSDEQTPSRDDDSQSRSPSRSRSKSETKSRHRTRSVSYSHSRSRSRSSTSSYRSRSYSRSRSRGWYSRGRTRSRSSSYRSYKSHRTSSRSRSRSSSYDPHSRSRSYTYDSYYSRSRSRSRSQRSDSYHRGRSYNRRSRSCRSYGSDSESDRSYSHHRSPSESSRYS
UniProt P51955: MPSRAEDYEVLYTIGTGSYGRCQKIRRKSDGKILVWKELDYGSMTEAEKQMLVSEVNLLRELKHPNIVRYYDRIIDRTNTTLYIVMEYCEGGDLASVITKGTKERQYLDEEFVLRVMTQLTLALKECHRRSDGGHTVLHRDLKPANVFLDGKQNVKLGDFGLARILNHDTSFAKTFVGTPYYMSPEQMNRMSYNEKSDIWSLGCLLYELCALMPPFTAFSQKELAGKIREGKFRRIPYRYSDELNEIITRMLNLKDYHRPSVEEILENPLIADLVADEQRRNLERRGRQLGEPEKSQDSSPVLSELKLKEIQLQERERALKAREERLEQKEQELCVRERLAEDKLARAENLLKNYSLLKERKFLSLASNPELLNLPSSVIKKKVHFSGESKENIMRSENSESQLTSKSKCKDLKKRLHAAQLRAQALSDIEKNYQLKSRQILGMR
UniProt O15226: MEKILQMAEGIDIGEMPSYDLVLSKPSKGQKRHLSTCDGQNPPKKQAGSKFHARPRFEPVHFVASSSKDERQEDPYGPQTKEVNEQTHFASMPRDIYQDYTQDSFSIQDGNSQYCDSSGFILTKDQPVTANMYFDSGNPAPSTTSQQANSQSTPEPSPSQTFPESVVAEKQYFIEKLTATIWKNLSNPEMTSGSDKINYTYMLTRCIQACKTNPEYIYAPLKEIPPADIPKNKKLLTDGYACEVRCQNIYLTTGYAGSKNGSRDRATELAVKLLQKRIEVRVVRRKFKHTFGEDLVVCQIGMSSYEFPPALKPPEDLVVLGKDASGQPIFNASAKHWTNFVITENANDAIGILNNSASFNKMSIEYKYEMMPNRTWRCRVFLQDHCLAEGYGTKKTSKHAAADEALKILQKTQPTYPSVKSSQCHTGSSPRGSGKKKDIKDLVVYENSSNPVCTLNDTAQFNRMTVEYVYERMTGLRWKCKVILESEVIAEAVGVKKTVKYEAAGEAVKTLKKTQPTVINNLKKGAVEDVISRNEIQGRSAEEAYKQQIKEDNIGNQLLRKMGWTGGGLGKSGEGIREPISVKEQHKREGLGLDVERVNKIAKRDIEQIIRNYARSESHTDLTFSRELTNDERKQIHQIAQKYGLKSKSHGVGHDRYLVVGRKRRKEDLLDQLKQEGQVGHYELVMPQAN
UniProt Q9H0A0: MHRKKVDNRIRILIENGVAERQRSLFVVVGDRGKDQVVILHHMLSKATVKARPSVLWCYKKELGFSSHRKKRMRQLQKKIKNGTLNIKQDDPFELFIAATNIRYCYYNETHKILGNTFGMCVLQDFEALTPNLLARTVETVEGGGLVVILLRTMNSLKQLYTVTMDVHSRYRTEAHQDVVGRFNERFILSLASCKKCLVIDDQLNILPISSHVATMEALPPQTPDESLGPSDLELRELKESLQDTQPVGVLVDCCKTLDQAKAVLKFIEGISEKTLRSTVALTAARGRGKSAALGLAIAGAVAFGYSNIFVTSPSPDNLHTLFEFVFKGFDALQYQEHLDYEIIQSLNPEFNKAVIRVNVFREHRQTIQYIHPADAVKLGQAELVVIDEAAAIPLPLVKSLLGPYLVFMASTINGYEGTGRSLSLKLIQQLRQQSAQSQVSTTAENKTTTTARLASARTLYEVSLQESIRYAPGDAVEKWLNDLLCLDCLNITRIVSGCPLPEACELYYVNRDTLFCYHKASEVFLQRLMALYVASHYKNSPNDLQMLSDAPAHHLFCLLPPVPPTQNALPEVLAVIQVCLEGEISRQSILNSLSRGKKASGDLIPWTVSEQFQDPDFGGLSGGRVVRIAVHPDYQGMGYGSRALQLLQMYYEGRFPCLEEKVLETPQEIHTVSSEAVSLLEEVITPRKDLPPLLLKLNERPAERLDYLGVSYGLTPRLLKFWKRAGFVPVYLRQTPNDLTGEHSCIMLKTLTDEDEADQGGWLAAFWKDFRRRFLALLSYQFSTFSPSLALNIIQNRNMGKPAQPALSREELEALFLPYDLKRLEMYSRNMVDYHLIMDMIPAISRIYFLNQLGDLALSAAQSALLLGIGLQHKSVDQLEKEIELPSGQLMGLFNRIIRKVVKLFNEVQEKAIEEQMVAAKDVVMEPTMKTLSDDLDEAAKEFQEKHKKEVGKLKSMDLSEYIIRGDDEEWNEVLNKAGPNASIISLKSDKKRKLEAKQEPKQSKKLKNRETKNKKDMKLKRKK
UniProt O43639, whole entry, looked up: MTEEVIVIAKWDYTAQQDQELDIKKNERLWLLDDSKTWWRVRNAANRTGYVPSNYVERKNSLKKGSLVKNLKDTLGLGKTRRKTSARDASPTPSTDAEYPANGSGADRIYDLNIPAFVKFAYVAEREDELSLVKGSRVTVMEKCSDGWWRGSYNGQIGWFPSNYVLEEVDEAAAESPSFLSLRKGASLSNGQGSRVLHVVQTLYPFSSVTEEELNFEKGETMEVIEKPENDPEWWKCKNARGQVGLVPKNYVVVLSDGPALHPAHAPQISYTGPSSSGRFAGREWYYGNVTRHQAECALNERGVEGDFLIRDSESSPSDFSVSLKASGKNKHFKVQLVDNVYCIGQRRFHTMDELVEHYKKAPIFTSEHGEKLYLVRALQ
UniProt Q92692: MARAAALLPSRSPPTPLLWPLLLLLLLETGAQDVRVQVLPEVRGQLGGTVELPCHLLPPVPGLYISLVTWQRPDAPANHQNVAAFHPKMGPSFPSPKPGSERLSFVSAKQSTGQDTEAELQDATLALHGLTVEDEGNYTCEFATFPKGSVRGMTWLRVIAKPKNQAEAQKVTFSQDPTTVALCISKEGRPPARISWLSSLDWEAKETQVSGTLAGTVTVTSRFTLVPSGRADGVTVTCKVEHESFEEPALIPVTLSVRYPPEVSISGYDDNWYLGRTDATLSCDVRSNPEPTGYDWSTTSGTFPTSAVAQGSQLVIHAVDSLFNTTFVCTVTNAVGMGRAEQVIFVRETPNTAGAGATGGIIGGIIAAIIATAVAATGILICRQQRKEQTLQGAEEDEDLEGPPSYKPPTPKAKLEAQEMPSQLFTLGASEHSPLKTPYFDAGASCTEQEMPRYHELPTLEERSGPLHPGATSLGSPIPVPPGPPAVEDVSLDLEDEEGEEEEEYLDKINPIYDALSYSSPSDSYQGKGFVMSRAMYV
NDRG2_(C255,C255,C274,C274), as listed by the source: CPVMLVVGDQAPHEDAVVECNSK

| Target | log2 mean competition ratio |
| --- | --- |
| NCAPH C239 (UniProt Q15003) | -0.117 |
| NCK1 C340 (UniProt P16333) | -0.0981 |
| NCDN C22 (UniProt Q9UBB6) | 0.127 |
| NDUFA7 C55 | 0.362 |
| NDRG2_(C255,C255,C274,C274) | -0.589 |
| NBEA C2007 (UniProt Q8NFP9) | 0.206 |
| NEK7 C298 (UniProt Q8TDX7) | -0.126 |
| NFKB2 C57 (UniProt Q00653) | 0.177 |
| NKTR C738 (UniProt P30414) | -0.134 |
| NEK2 C335 (UniProt P51955) | -0.0799 |
| NEK7 C253 (UniProt Q8TDX7) | 0.0786 |
| NOP56 C211 (UniProt O00567) | 0.245 |
| NKRF C246 (UniProt O15226) | 0.41 |
| NAT10 C105 (UniProt Q9H0A0) | 0.325 |
| NBR1 C669 (UniProt Q14596) | -0.186 |
| NHSL1 C162 (UniProt Q5SYE7) | -0.0533 |
| NOP14 C457 (UniProt P78316) | 0.322 |
| NF1 C1711 (UniProt P21359) | -0.21 |
| NCK2 C297 (UniProt O43639) | -0.0133 |
| NECTIN2 C446 (UniProt Q92692) | -0.133 |

same assay, conditions: 200 µM; treatment time: 4 h; cell line lysate: HEK293T

| Target | log2 mean competition ratio |
| --- | --- |
| NCAPH C239 (UniProt Q15003) | -9.36e-05 |
| NCK1 C340 (UniProt P16333) | -0.223 |
| NCDN C22 (UniProt Q9UBB6) | 0.187 |
| NDUFA7 C55 | 0.0514 |
| NDRG2_(C255,C255,C274,C274) | -0.00655 |
| NBEA C2007 (UniProt Q8NFP9) | 0.0259 |
| NEK7 C298 (UniProt Q8TDX7) | 0.0382 |
| NFKB2 C57 (UniProt Q00653) | -0.0185 |
| NKTR C738 (UniProt P30414) | 0.118 |
| NEK2 C335 (UniProt P51955) | -0.152 |
| NEK7 C253 (UniProt Q8TDX7) | 0.0248 |
| NOP56 C211 (UniProt O00567) | 0.337 |
| NKRF C246 (UniProt O15226) | 0.275 |
| NAT10 C105 (UniProt Q9H0A0) | -0.14 |
| NBR1 C669 (UniProt Q14596) | -0.282 |
| NHSL1 C162 (UniProt Q5SYE7) | 0.0721 |
| NOP14 C457 (UniProt P78316) | -0.556 |
| NF1 C1711 (UniProt P21359) | -0.0908 |
| NCK2 C297 (UniProt O43639) | 0.0369 |
| NECTIN2 C446 (UniProt Q92692) | 0.465 |

— the supplement of paper PMC11732987, “Enantioselective OTUD7B fragment discovery through chemoproteomics screening and high-throughput optimisation” (Communications Chemistry, 2025)
